Values quoted from earlier work in US20150335610A1, “PDK4 INHIBITOR AND USE THEREOF” (priority 2012, published 2015).

Tested on: PDK
Settings: background statement; cited from earlier work

## CN[C@@H]1C[C@H]2O[C@@](C)([C@@H]1OC)n1c3ccccc3c3c4c(c5c6ccccc6n2c5c31)C(=O)NC4 [staurosporine]
  inhibition of PDK: not inhibited
